# These are yes or no findings as the source states them, for the method shown. Binding seen in cells or lysates may run through a third protein. For part of these data: Binding calls can cover weak binding; strength is not graded here.
# B1: human lysozyme (enzyme, UniProt P61626 19-148)
# chain: KVFERCELARTLKRLGMDGYRGISLANWMCLAKWESGYNTRATNYNAGDRSTDYGIFQINSRYWCNDGKTPGAVNACHLSCSALLQDNIADAVACAKRVVRDPQGIRAWVAWRNRCQNRDVRQYVQGCGV
# Key:
# Assay in all cases: co-IP; intact Gc induced with IPTG for the FLAG-tagged protein were exposed to 1,000 μg/mL human lysozyme or vehicle for 3 hr at 37°C, washed, lysed (1% Triton-X-100, 150 mM NaCl, 2 mM EDTA, 20 mM Tris-HCl pH 7.5); lysate on M2 FLAG Affinity Gel 2 hr at 4°C, six washes; immunoblot for lysozyme and FLAG; only the binder purified
# [1] = target: Ng_1063(K103A)-FLAG (Neisseria gonorrhoeae (strain MS11))
# [2] = target: Ng_1981(WT)-FLAG (Neisseria gonorrhoeae (strain MS11))
# [3] = target: LtgA-FLAG (Neisseria gonorrhoeae (strain MS11))
# [4] = target: Ng_1063(WT)-FLAG (Neisseria gonorrhoeae (strain MS11))
# [5] = target: LtgD-FLAG (Neisseria gonorrhoeae (strain MS11))
# [6] = target: Ng_1063(S83A)-FLAG (Neisseria gonorrhoeae (strain MS11))
binder,measurement,setting,value
B1,binding,[1],binds
same,binding,[2],binds
same,binding,[3],"no binding (tested: 1,000 μg/mL human lysozyme)"
same,binding,[4],binds
same,binding,[5],"no binding (tested: 1,000 μg/mL human lysozyme)"
same,binding,[6],binds
